Where two headings read alike, the source gives them in different places. Results are given in words; binding and its absence hold for the method and conditions named. In cells and extracts the contact can be indirect. Binding calls can cover weak binding; strength is not graded here. For some assays here: Sequences can lack the tags named with a protein.
Legend:
[1] = target: Drosophila Wdr92, epitope-tagged (Drosophila melanogaster) (UniProt Q9VVM7); experiment: co-IP; S2 cells transfected with FLAG-tagged and HA-tagged Drosophila proteins, anti-FLAG immunoprecipitation from cell extracts, blots probed with anti-HA and anti-FLAG; for Spag1 with and without overexpressed Pontin and Reptin
[2] = target: Drosophila Wdr92, epitope-tagged (Drosophila melanogaster) (UniProt Q9VVM7); experiment: as above; remark: listed apart in the source

Chains of the proteins cited; added tags and fusions are not shown. Lines headed by an entry give the natural chain unless they say otherwise; changes in a name come on top.
UniProt Q9VVM7: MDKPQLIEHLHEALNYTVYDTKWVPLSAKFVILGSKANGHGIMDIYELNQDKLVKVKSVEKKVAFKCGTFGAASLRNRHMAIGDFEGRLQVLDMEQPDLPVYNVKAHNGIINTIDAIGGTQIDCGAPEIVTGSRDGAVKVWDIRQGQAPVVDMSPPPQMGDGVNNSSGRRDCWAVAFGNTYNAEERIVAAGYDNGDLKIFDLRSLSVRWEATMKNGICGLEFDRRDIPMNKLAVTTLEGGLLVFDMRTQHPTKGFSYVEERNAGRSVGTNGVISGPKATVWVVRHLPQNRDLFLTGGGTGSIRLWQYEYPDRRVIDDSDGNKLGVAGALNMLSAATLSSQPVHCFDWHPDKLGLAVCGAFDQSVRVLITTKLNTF
UniProt Q9V3E9: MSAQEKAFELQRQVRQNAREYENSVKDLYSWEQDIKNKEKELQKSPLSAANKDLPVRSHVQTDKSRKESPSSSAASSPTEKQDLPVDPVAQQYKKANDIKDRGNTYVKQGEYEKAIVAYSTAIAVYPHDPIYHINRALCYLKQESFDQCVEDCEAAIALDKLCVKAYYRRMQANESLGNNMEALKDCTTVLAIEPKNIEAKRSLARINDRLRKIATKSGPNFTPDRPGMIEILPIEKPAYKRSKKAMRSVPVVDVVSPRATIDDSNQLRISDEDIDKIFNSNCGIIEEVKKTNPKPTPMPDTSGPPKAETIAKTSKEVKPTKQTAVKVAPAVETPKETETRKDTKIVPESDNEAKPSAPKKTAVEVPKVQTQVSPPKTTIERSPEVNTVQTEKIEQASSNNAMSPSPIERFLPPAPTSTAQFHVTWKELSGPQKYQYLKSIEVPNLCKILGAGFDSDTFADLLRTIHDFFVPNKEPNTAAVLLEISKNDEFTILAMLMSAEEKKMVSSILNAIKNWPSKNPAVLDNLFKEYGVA

Question: How did the binding [1] turn out when “Drosophila Rpap3/Spaghetti, epitope-tagged (from UniProt Q9V3E9)” was run?
Answer: binds

B1: Drosophila Spag1/CG18472, epitope-tagged (protein, UniProt Q9VBA1 1-469)
chain: MEKEKKKSLLERYNIPIHYLDFAHVEKCTNAREMEKIVQILRSGEEGHYPDLQRCAEEKLKALKPDSKLFRYEEQIKQSTDLDKTELKPILDWTDAIKTKDNALNELKKVKQNLNLPSVRKLSKIDLEKESKTEKPKPAPKATSPSNTKNKEARIKSTDYRKWDKYDPDEEILRMDLNEERDQEQREKIISNHSKSVTTDKLQSERDSLYERLQAQLKNLSQLEKEQFAERHRLRGNESFKAKEYENAIEEYNCSIIYDPENAVHAYNNRAVAHLKLKKYFSAISDCQACLQIDPMNIKAHLRMAEAHNAEGKHLESLNVYKKLLDFEPDNAIAKKAVEKLTSMLGEVAPSSATRLIIEEIDPPQLKTSEPKKEAEKSEPTVVKKPEPVVSAKKPPPIKDYDLAELVKPNRMVKSNLVSAAEALGNKMQASKGGAPKKPQSPPMTPKETLLRLPQDNLNNSNKLLIQEI
Question: Which binding [2] does the source give for B1 here?
Answer: binds

— paper PMC6028525
